Like-named read-outs stand apart in the source and are kept apart here.
Tests used:
[1] = in vivo
[2] = in vivo; cited from earlier work

## NCCC[C@H](N)C(=O)O [Ornithine]
[1]
  LD50: 350 g
[2]
  LD50: 5000 mg/kg

— patent US10369166B2 (priority 2014, dated 2019)
